Assay results from publication PMC6794296.
No constants are given. Whether binding was seen depends on the method and setting. Binding seen in cells or lysates may run through a third protein. Some entries that bind do so weakly or less than the wild type. Where a sequence is shown, tags or fusion partners need not be part of it.

The chains behind the UniProt entries cited, without tags or fusion partners.
UniProt O14986: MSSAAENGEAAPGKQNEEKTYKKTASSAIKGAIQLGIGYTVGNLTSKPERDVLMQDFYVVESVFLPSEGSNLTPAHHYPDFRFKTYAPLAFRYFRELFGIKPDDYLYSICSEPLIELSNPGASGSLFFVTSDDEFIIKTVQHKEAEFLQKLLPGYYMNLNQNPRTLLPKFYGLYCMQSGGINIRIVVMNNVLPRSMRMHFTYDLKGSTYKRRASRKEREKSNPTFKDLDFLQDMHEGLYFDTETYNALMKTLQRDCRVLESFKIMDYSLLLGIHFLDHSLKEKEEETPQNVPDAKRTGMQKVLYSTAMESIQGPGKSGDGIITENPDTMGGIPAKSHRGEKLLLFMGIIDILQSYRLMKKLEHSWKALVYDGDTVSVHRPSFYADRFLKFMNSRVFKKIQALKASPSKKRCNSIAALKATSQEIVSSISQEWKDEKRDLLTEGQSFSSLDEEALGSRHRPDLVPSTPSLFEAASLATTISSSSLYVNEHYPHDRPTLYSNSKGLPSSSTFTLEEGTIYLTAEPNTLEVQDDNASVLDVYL
UniProt Q99755: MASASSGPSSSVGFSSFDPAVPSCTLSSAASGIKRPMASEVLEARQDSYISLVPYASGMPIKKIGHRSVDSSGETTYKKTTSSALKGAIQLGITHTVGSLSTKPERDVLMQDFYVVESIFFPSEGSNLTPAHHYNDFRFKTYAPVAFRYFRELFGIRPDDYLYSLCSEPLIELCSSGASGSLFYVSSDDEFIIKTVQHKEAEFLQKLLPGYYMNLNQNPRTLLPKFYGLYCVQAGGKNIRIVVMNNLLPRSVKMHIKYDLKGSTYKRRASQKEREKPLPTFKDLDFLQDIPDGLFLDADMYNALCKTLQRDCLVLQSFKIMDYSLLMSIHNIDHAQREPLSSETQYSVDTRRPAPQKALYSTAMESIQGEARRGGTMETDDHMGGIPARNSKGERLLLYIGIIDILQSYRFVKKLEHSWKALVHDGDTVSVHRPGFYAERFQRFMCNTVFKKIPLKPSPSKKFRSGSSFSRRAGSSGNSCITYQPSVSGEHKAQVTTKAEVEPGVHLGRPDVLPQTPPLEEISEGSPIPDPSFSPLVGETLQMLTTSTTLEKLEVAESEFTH
UniProt O60331: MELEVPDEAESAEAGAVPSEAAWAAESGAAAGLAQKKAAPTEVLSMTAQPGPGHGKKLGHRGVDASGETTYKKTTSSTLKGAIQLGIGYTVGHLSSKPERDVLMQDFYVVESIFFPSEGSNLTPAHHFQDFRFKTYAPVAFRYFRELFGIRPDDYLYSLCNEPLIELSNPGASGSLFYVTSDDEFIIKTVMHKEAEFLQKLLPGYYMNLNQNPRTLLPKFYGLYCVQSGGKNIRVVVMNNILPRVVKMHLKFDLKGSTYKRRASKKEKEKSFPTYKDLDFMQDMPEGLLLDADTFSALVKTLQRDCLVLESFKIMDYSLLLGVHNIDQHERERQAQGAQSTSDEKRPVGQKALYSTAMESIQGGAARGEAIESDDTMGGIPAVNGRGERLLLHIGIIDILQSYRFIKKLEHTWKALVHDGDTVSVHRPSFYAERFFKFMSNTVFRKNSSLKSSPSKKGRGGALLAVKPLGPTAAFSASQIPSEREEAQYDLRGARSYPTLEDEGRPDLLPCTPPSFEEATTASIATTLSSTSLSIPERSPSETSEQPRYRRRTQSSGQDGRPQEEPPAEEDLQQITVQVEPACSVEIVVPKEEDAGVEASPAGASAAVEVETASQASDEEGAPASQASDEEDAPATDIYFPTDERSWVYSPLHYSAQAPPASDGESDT

Target: T1, mCherry-tagged phosphatidylinositol 4-phosphate 5-kinase homolog (PIPKH) (human) (UniProt Q5T9C9)
T1 sequence: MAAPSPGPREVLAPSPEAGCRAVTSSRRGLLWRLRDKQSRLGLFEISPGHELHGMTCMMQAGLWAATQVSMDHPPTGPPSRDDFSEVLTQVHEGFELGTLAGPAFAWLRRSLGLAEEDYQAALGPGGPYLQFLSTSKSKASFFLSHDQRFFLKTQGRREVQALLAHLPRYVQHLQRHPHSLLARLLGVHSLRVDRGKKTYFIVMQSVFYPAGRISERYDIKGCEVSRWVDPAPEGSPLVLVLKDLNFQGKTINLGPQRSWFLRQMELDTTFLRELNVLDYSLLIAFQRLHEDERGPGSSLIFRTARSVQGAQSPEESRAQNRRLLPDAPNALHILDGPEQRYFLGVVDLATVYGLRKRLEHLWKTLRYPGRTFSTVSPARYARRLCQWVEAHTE
Assay: FRET or BRET; FLIM-FRET in CHO cells transiently co-transfected; donor GFP or YFP on PIP5K or Rab protein, acceptor mCherry on PIPKH; lifetime of the donor with and without the acceptor

binding, binds:
YFP-PIP5Kβ (from UniProt O14986 1-540) (enzyme)
YFP-PIP5Kα (from UniProt Q99755 1-562) (enzyme)
GFP-PIP5Kγ90 (from UniProt O60331 1-668) (enzyme)
